These are yes or no findings as the source states them, for the method shown. In cells and extracts the contact can be indirect. A yes stands for co-enrichment or nearness to the bait. Other partners may have been found. Tags and fused reporters may be left off the sequences shown.
T1: Heme oxygenase 1 (recombinant FLAGHO-1) (human) (UniProt P09601)
T1 sequence: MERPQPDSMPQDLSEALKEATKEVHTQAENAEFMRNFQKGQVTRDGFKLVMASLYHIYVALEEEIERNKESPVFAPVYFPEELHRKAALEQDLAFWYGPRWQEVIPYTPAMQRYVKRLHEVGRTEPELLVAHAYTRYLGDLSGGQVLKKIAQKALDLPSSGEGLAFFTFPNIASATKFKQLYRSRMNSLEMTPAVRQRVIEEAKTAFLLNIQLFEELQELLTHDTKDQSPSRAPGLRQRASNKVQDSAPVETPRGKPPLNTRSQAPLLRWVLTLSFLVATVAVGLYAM

B1: Isoform 4 of Spastin (protein, UniProt Q9UBP0-4 1-498)
chain: MAAKRSSGAAPAPASASAPAPVPGGEAERVRVFHKQAFEYISIALRIDEDEKAGQKEQAVEWYKKGIEELEKGIAVIVTGQGEQCERARRLQAKMMTNLVMAKDRLQLLESGAVPKRKDPLTHTSNSLPRSKTVMKTGSAGLSGHHRAPSYSGLSMVSGVKQGSGPAPTTHKGTPKTNRTNKPSTPTTATRKKKDLKNFRNVDSNLANLIMNEIVDNGTAVKFDDIAGQDLAKQALQEIVILPSLRPELFTGLRAPARGLLLFGPPGNGKTMLAKAVAAESNATFFNISAASLTSKYVGEGEKLVRALFAVARELQPSIIFIDEVDSLLCERREGEHDASRRLKTEFLIEFDGVQSAGDDRVLVMGATNRPQELDEAVLRRFIKRVYVSLPNEETRLLLLKNLLCKQGSPLTQKELAQLARMTDGYSGSDLTALAKDAALGPIRELKPEQVKNMSASEMRNIRLSDFTESLKKIKRSVSPQTLEAYIRWNKDFGDTTV
B2: Spermatogenesis-associated protein 7 (protein, UniProt Q9P0W8 1-599)
chain: MDGSRRVRATSVLPRYGPPCLFKGHLSTKSNAFCTDSSSLRLSTLQLVKNHMAVHYNKILSAKAAVDCSVPVSVSTSIKYADQQRREKLKKELAQCEKEFKLTKTAMRANYKNNSKSLFNTLQKPSGEPQIEDDMLKEEMNGFSSFARSLVPSSERLHLSLHKSSKVITNGPEKNSSSSPSSVDYAASGPRKLSSGALYGRRPRSTFPNSHRFQLVISKAPSGDLLDKHSELFSNKQLPFTPRTLKTEAKSFLSQYRYYTPAKRKKDFTDQRIEAETQTELSFKSELGTAETKNMTDSEMNIKQASNCVTYDAKEKIAPLPLEGHDSTWDEIKDDALQHSSPRAMCQYSLKPPSTRKIYSDEEELLYLSFIEDVTDEILKLGLFSNRFLERLFERHIKQNKHLEEEKMRHLLHVLKVDLGCTSEENSVKQNDVDMLNVFDFEKAGNSEPNELKNESEVTIQQERQQYQKALDMLLSAPKDENEIFPSPTEFFMPIYKSKHSEGVIIQQVNDETNLETSTLDENHPSISDSLTDRETSVNVIEGDSDPEKVEISNGLCGLNTSPSQSVQFSSVKGDNNHDMELSTLKIMEMSIEDCPLDV
B3: Testis-derived transcript (protein, UniProt Q9UGI8-1 1-421)
chain: MDLENKVKKMGLGHEQGFGAPCLKCKEKCEGFELHFWRKICRNCKCGQEEHDVLLSNEEDRKVGKLFEDTKYTTLIAKLKSDGIPMYKRNVMILTNPVAAKKNVSINTVTYEWAPPVQNQALARQYMQMLPKEKQPVAGSEGAQYRKKQLAKQLPAHDQDPSKCHELSPREVKEMEQFVKKYKSEALGVGDVKLPCEMDAQGPKQMNIPGGDRSTPAAVGAMEDKSAEHKRTQYSCYCCKLSMKEGDPAIYAERAGYDKLWHPACFVCSTCHELLVDMIYFWKNEKLYCGRHYCDSEKPRCAGCDELIFSNEYTQAENQNWHLKHFCCFDCDSILAGEIYVMVNDKPVCKPCYVKNHAVVCQGCHNAIDPEVQRVTYNNFSWHASTECFLCSCCSKCLIGQKFMPVEGMVFCSVECKKRMS
B4: Thyroid hormone receptor-associated protein 3 (protein, UniProt Q9Y2W1 1-955)
chain: MSKTNKSKSGSRSSRSRSASRSRSRSFSKSRSRSRSLSRSRKRRLSSRSRSRSYSPAHNRERNHPRVYQNRDFRGHNRGYRRPYYFRGRNRGFYPWGQYNRGGYGNYRSNWQNYRQAYSPRRGRSRSRSPKRRSPSPRSRSHSRNSDKSSSDRSRRSSSSRSSSNHSRVESSKRKSAKEKKSSSKDSRPSQAAGDNQGDEAKEQTFSGGTSQDTKASESSKPWPDATYGTGSASRASAVSELSPRERSPALKSPLQSVVVRRRSPRPSPVPKPSPPLSSTSQMGSTLPSGAGYQSGTHQGQFDHGSGSLSPSKKSPVGKSPPSTGSTYGSSQKEESAASGGAAYTKRYLEEQKTENGKDKEQKQTNTDKEKIKEKGSFSDTGLGDGKMKSDSFAPKTDSEKPFRGSQSPKRYKLRDDFEKKMADFHKEEMDDQDKDKAKGRKESEFDDEPKFMSKVIGANKNQEEEKSGKWEGLVYAPPGKEKQRKTEELEEESFPERSKKEDRGKRSEGGHRGFVPEKNFRVTAYKAVQEKSSSPPPRKTSESRDKLGAKGDFPTGKSSFSITREAQVNVRMDSFDEDLARPSGLLAQERKLCRDLVHSNKKEQEFRSIFQHIQSAQSQRSPSELFAQHIVTIVHHVKEHHFGSSGMTLHERFTKYLKRGTEQEAAKNKKSPEIHRRIDISPSTFRKHGLAHDEMKSPREPGYKAEGKYKDDPVDLRLDIERRKKHKERDLKRGKSRESVDSRDSSHSRERSAEKTEKTHKGSKKQKKHRRARDRSRSSSSSSQSSHSYKAEEYTEETEEREESTTGFDKSRLGTKDFVGPSERGGGRARGTFQFRARGRGWGRGNYSGNNNNNSNNDFQKRNREEEWDPEYTPKSKKYYLHDDREGEGSDKWVSRGRGRGAFPRGRGRFMFRKSSTSPKWAHDKFSGEEGEIEDDESGTENREEKDNIQPTTE
B5: Aspartyl beta-hydroxylase (protein, UniProt Q12797 1-758)
chain: MAQRKNAKSSGNSSSSGSGSGSTSAGSSSPGARRETKHGGHKNGRKGGLSGTSFFTWFMVIALLGVWTSVAVVWFDLVDYEEVLGKLGIYDADGDGDFDVDDAKVLLGLKERSTSEPAVPPEEAEPHTEPEEQVPVEAEPQNIEDEAKEQIQSLLHEMVHAEHVEGEDLQQEDGPTGEPQQEDDEFLMATDVDDRFETLEPEVSHEETEHSYHVEETVSQDCNQDMEEMMSEQENPDSSEPVVEDERLHHDTDDVTYQVYEEQAVYEPLENEGIEITEVTAPPEDNPVEDSQVIVEEVSIFPVEEQQEVPPETNRKTDDPEQKAKVKKKKPKLLNKFDKTIKAELDAAEKLRKRGKIEEAVNAFKELVRKYPQSPRARYGKAQCEDDLAEKRRSNEVLRGAIETYQEVASLPDVPADLLKLSLKRRSDRQQFLGHMRGSLLTLQRLVQLFPNDTSLKNDLGVGYLLIGDNDNAKKVYEEVLSVTPNDGFAKVHYGFILKAQNKIAESIPYLKEGIESGDPGTDDGRFYFHLGDAMQRVGNKEAYKWYELGHKRGHFASVWQRSLYNVNGLKAQPWWTPKETGYTELVKSLERNWKLIRDEGLAVMDKAKGLFLPEDENLREKGDWSQFTLWQQGRRNENACKGAPKTCTLLEKFPETTGCRRGQIKYSIMHPGTHVWPHTGPTNCRLRMHLGLVIPKEGCKIRCANETKTWEEGKVLIFDDSFEHEVWQDASSFRLIFIVDVWHPELTPQQRRSLPAI
B6: Tropomodulin 3 (protein, UniProt Q9NYL9 1-352)
chain: MALPFRKDLEKYKDLDEDELLGNLSETELKQLETVLDDLDPENALLPAGFRQKNQTSKSTTGPFDREHLLSYLEKEALEHKDREDYVPYTGEKKGKIFIPKQKPVQTFTEEKVSLDPELEEALTSASDTELCDLAAILGMHNLITNTKFCNIMGSSNGVDQEHFSNVVKGEKILPVFDEPPNPTNVEESLKRTKENDAHLVEVNLNNIKNIPIPTLKDFAKALETNTHVKCFSLAATRSNDPVATAFAEMLKVNKTLKSLNVESNFITGVGILALIDALRDNETLAELKIDNQRQQLGTAVELEMAKMLEENTNILKFGYQFTQQGPRTRAANAITKNNDLVRKRRVEGDHQ

Molecular target: T1, Heme oxygenase 1 (recombinant FLAGHO-1) (human)
Assay: affinity purification with mass spectrometry; PC3 cells transiently transfected with FLAGHO-1 or empty FLAG vector and treated with H2O2 (200 uM); extract in 20 mM Tris, 150 mM NaCl, 5 mM MgCl2, 0.5% NP40, pH 7.5; Flag magnetic beads 2 h at 4 °C; eluted with 3XFLAG peptide; trypsin digest, LC-ESI MS/MS; only proteins differential against the empty FLAG vector were kept

binding, binds:
B1
B2
B3
B4
B5
B6

— article PMC5261017
